Data published in PubChem BioAssay AID504467 (National Center for Advancing Translational Sciences (NCATS), 2011).
Among all 330,000 compounds or so, about 7,700 (2.3%) were called active. The inconclusive results got no clear call from the source; some entries with a clear call stand among them for comparison. Calls follow the shape of the dose curve; as a rule, active = well fitted inhibition curve with a large enough effect; inconclusive = small, poorly fitted or top-dose-only effect, or effect the other way; inactive = flat fitted curve, though single readings scatter. Potencies beside an inconclusive call are fits to weak or partial responses and may not hold up. A structure can be active in one record and inactive in another.

Assay: qHTS screen for small molecules that inhibit ELG1-dependent DNA repair in human embryonic kidney (HEK293T) cells expressing luciferase-tagged ELG1; also: nearly all actives have a fitted effect of over 55% in size
Details: HEK293T ELG1-luciferase reporter, luminescence, 16 h, DNA damage induced by 5-fluorouridine; activity change, negative = inhibition: at 46.1 µM (top of the series)
How it was run: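 Overnight (16 hr) co-exposure of 2,000 cells/well to 5-fluorouridine and compound at 37 °C preceded detection. Luciferase was quantified via ONE-Glo luminescence; loss of signal denotes inhibition.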
% is scaled to controls: 0 for no effect and ±100 for the full control effect; potency is read from the fitted curve at half-maximal effect.

SMILES	activity change, negative = inhibition	Potency
O=C(CSc1ccccc1C(=O)N1CCCCC1)NCC1CCCCC1	inactive: -4.8%	
CC(C)(C)c1ccc(C(=O)N2CCN(CCNC(=O)C(=O)NCc3ccccc3)CC2)cc1	inactive: -18.1%	
O=C1C=C(c2ccc(Oc3ccccc3)cc2)C[C@@H](c2ccc(F)cc2)C1	inactive: -9.56%	
COC(=O)c1ccccc1NC(=S)NC(=O)COc1ccc(C(C)C)cc1	inactive: -1.98%	
Cn1cc(C(=O)N/N=C/C2=C(N3CCOCC3)C(=C\c3ccccc3)/CC2)ccc1=O		inconclusive: 2.31 µM [inhibitor, partial curve, poor fit]
COc1cccc2c1C(=O)c1c(O)c3c(c(O)c1C2=O)C[C@@](O)(C(=O)CO)C[C@@H]3O[C@H]1C[C@H](N)[C@H](O)[C@H](C)O1		inconclusive: 2.31 µM [inhibitor, full curve]
COC(=O)N/N=C/c1c(C)c(C(=O)c2ccc(F)cc2)n2ccccc12		active: 23.1 µM
CC(C)(C)Cc1nc(-c2ccc(Cl)cc2)no1		inconclusive: 29.1 µM [activator, single point]
O=C(COC(=O)[C@H](Cc1c[nH]c2ccccc12)NC(=O)c1ccc(Cl)cc1)Nc1ccc2c(c1)OCO2	inactive: 2.31%	
Cc1cc2nc(N3CCN(C(=O)c4ccco4)CC3)sc2cc1C		inconclusive: 1.46 µM [activator, full curve]
Cc1ccc2c(c1)[nH]c1c(N3CCN(Cc4ccc5c(c4)OCO5)CC3)ncnc12	inactive: -16.5%	
COc1ccc(OC)c(/C=C/C(=O)N2C(=O)c3cccc(N)c3C2=O)c1		inconclusive: 29.1 µM [inhibitor, single point]
CN1CCC(=NNC(=O)C(=O)Nc2ccccc2F)CC1	inactive: 16.4%	
Cc1cc2oc(=O)cc(CN3CCN(S(=O)(=O)/C=C/c4ccccc4)CC3)c2cc1C	inactive: -21.4%	
O=C(Nc1ccc2c(c1)OCCO2)NC1CCCCC1		inconclusive: 4.11 µM [activator, partial curve]
N#Cc1ccccc1COC(=O)c1ccc2c(c1)OCO2		inconclusive: 16.4 µM [activator, partial curve]
CN(C)c1nc(N)c([N+](=O)[O-])c(NCCO)n1	inactive: 13.9%	
O=C(Cn1c(=O)c2cccn2c2cccnc21)N1CCN(c2ccc(Cl)cc2)CC1		inconclusive: 18.3 µM [inhibitor, single point]
CN(C)c1cccc(C(=O)NCC(c2ccco2)N(C)C)c1 (stereo not drawn)		inconclusive: 23.1 µM [activator, single point]
CCc1ccc(OCCOCC(O)CN(CCO)CCO)cc1 (stereo not drawn)	inactive: 3.25%	
CCCCn1c2nc3ccccc3nc2c2c(=O)n(CCC(C)C)cnc21		inconclusive: 28.2 µM [inhibitor, single point]
COc1ccc2c(c1)[C@H]1[C@H](CO2)[C@H](c2ccccc2)[C@]2(C)C(=O)Nc3cc(F)c(F)cc3C(=O)N12		inconclusive: 3.98 µM [inhibitor, partial curve, poor fit]
CCS(=O)(=O)Nc1cccc(-c2cn3c(n2)SCC3)c1	inactive: 15.2%	
O=C(NCc1ccccc1)C(=O)Nc1cccc(C(=O)O)c1		inconclusive: 0.651 µM [activator, partial curve]
CCOC(=O)C1=C(C)NC(C)=C(C(=O)OCC)C1C(=O)OCC(=O)NC1(C#N)CCCCC1		inconclusive: 5.17 µM [inhibitor, single point]

Nothing new here: 3 of the compounds above.
SMILES	activity change, negative = inhibition	Potency
CC(C)(C)c1ccc(C(=O)N2CCN(CCNC(=O)C(=O)NCc3ccccc3)CC2)cc1	inactive: -18.1%	
O=C1C=C(c2ccc(Oc3ccccc3)cc2)C[C@@H](c2ccc(F)cc2)C1	inactive: -9.56%	
COC(=O)c1ccccc1NC(=S)NC(=O)COc1ccc(C(C)C)cc1	inactive: -1.98%	

Further compounds.

SMILES	activity change, negative = inhibition	Potency
COc1ccc(C2C(C(=O)c3ccccc3)N3c4ccccc4C=CC3C2[N+](=O)[O-])cc1 (stereo not drawn)	inactive: 2.95%	
CC(OC(=O)c1cccn1C)C(=O)Nc1ccc2c(c1)OCO2 (stereo not drawn)	inactive: -7.32%	
CCOc1ccc(-c2[nH]nc3c2C(c2ccc(O)cc2)C(C#N)=C(N)O3)cc1 (stereo not drawn)	inactive: 12.1%	
COc1ccc(N2CCN(CCNC(=O)Nc3ccc(C)c(Cl)c3)CC2)cc1	inactive: -22%	
CCc1nc(SCc2ccc(OC)c(Br)c2)n[nH]1		inconclusive: 20.6 µM [activator, single point]
COc1ccc(OC2C(=O)N(c3cc(C)ccc3C)C2c2ccc(OC)c(OC)c2)cc1 (stereo not drawn)		active: 18.4 µM
CC(=O)c1sc(NC(=O)CCN2C(=O)C3CC=CCC3C2=O)nc1-c1ccccc1 (stereo not drawn)	inactive: -10.9%	
CCOc1ccc2[nH]cc(C(=O)NCCc3ccccc3)c(=O)c2c1		inconclusive: 32.6 µM [inhibitor, single point]
O=C(CCNc1ccc(Cl)cc1)c1cccs1		inconclusive: 14.6 µM [activator, partial curve]
CCNS(=O)(=O)c1ccc(C(=O)OCc2cc(=O)oc3cc(OC)ccc23)cc1	inactive: 3.42%	
CC1Cc2ccccc2C(=O)N1 (stereo not drawn)		inconclusive: 5.17 µM [activator, partial curve, poor fit]
CCOC(=O)N/N=C\c1cccc(OC)c1OC/C=C/c1ccccc1	inactive: -4%	
COCCn1nnnc1C(C(C)C)N(Cc1ccccc1)Cc1cc2cc(OC)ccc2[nH]c1=O (stereo not drawn)		inconclusive: 29.1 µM [inhibitor, single point]
COc1cc(SC)ccc1C(=O)NNC(=O)c1cc(C)oc1C		inconclusive: 2.31 µM [activator, full curve]
O=C(Nc1ccccc1)C1=C[C@@H](c2coc3ccccc3c2=O)C[C@@H](OCc2ccc(CO)cc2)O1		inconclusive: 20.6 µM [inhibitor, single point]
COc1ccc(C(=O)NCC(=O)N2CCC3(CC2)NCCc2[nH]cnc23)cc1		inconclusive: 29.1 µM [activator, single point]
Cc1ccc(NC(=S)c2ccncc2)cc1	inactive: 12.3%	
CCc1nnc(NC(=O)c2ccc(S(=O)(=O)N3CCCc4ccccc43)cc2)o1		inconclusive: 18.4 µM [inhibitor, partial curve]
CCOC(=O)N1CCN(CC(=O)Nc2sccc2C#N)CC1	inactive: 5.51%	
CCOCCCNC(=O)CN1C(=O)COc2ccc(S(=O)(=O)N3CCC(C)CC3)cc21		inconclusive: 0.0116 µM [activator, full curve, poor fit]
CCCCN(CC)Cc1c(O)ccc2c(-c3ccccc3)cc(=O)oc12		inconclusive: 25.9 µM [inhibitor, partial curve, poor fit]
CC(=O)c1ccc(N2CCc3ccccc3C2)c([N+](=O)[O-])c1		inconclusive: 20.6 µM [activator, partial curve]
COc1ccc(/C=C2\COc3ccccc3C2=O)cc1OC		inconclusive: 29.1 µM [inhibitor, single point]
COc1cc(OC)cc(C(=O)NCC(=O)OCc2csc(-c3ccccc3)n2)c1		inconclusive: 20.6 µM [activator, partial curve]
c1ccc2c(c1)[nH]c1c(N3CCOCC3)ncnc12		inconclusive: 29.1 µM [inhibitor, single point]

SMILES	activity change, negative = inhibition	Potency
CNC(=S)N1N=C(c2ccc(OC)cc2)CC1c1ccccc1Cl (stereo not drawn)		inconclusive: 29.1 µM [inhibitor, single point]
CCCN(CCC)C(=O)CSc1nc2c(sc(=S)n2-c2ccc(OCC)cc2)c(=O)[nH]1		inconclusive: 29.1 µM [inhibitor, single point]
COc1cccc(-c2n[nH]c(=S)n2Cc2ccco2)c1	inactive: -0.778%	
CC(C)(O)C#Cc1ccc(C(=O)NCc2ccccc2F)cc1		inconclusive: 18.4 µM [activator, single point]
CCc1cc2c(SCC(=O)O)ncnc2s1	inactive: -26.1%	
O=C(NCC1COc2ccccc2O1)c1ccc(Cl)c(S(=O)(=O)N2CCOCC2)c1 (stereo not drawn)		inconclusive: 20.6 µM [inhibitor, partial curve]
CC(C)C[C@H](NC(=O)C1CC(=O)N(c2ccc(F)cc2)C1)C(=O)N1CCCCC1 (stereo partly drawn)	inactive: 9.72%	
CCSc1nc2c(cnn2-c2ccc(C)cc2)c(=O)[nH]1		inconclusive: 23.1 µM [activator, partial curve, poor fit]
CCCCn1c(O)c(/C=C2\C=NN=C2c2ccccc2)sc1=S	inactive: 13.6%	
Cn1c(=O)c2c(nc(Oc3ccccc3)n2C)n(C)c1=O		active: 16.4 µM
CCOc1ccc2nc(NC(=O)Cc3cccs3)sc2c1		inconclusive: 16.4 µM [activator, partial curve]
Cc1ccc(C(=O)NCC(=O)OCC(=O)N(CC(C)C)c2c(N)n(Cc3ccccc3)c(=O)[nH]c2=O)cc1		inconclusive: 25.9 µM [activator, single point]
OC(CN1CCOCC1)CN1CCOCC1	inactive: -0.971%	
Cc1c(CCOC(=O)c2ccc(N3CCOCC3)c([N+](=O)[O-])c2)sc[n+]1CC#N	inactive: 5.49%	
COc1cc(OC)cc(C(=O)NCC(=O)N2CC=C(c3ccccc3)CC2)c1		inconclusive: 18.3 µM [inhibitor, single point]
Cc1cc(S(=O)(=O)NCc2ccccc2)ccc1OCC(=O)NCc1ccncc1		inconclusive: 18.3 µM [activator, partial curve]
COc1ccc(Cl)cc1C(=O)Nc1ccc(N(C)C(C)=O)cc1		inconclusive: 18.4 µM [activator, partial curve]
CCc1c(C)sc(NC(=O)c2cc(C(C)C)on2)c1C#N		inconclusive: 0.82 µM [activator, full curve, poor fit]
Cc1ccc(SCC(=O)Nc2ccc(S(=O)(=O)Nc3nccs3)cc2)cc1	inactive: 3.47%	
COc1cc2c(c(OC)c1OC)-c1c(cc3c(c1O)OCO3)C[C@@H](C)[C@@H](C)C2	inactive: -0.355%	
Cc1cccc(C(=O)O)c1NC(=O)Cc1cccc2ccccc12	inactive: -1.72%	
CC(C)Cc1nc(Cl)c(C#N)c2c1CCCC2		inconclusive: 18.4 µM [inhibitor, partial curve]
CN(C)c1ccc(NC(=O)Nc2cccc(Cl)c2)cc1		inconclusive: 3.66 µM [activator, full curve]

Filtered by structure: the compounds so far with a tert-butyl group.
SMILES	activity change, negative = inhibition	Potency
CC(C)(C)c1ccc(C(=O)N2CCN(CCNC(=O)C(=O)NCc3ccccc3)CC2)cc1	inactive: -18.1%	
CC(C)(C)Cc1nc(-c2ccc(Cl)cc2)no1		inconclusive: 29.1 µM [activator, single point]
